We go through 22 sequences from paper PMC8384837.

Details in all cases: yeast three-hybrid, YBZ-1, SC-Leu-His + 0.5 mM 3-AT, 4 days
The target of assay [1] is T1, PUM1 PUF domain R3-THE R4-TFR C935T + R936H + Q939E + N971T + H972F + Q975R (UniProt Q14671).
T1 sequence: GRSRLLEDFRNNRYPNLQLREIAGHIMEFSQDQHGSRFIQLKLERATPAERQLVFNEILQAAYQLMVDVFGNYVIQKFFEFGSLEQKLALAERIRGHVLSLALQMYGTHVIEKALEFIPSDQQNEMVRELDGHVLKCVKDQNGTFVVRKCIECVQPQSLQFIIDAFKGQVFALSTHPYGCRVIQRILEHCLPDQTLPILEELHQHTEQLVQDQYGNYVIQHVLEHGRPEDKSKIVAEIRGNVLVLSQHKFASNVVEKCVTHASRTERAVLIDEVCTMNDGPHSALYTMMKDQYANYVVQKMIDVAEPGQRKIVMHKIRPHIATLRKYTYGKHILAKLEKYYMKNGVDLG

For assay [2], the target named is T2, PUM1 PUF domain R3-THE R4-TFR R7-NPG C935T + R936H + Q939E + N971T + H972F + Q975R + S1079N + N1080P + E1083G (UniProt Q14671).
T2 sequence: T1 sequence with S252N, N253P, E256G

The target of assay [3] is T3, PUM1 PUF domain R5-PHQ R6-SWD C1007P + R1008H + N1043S + Y1044W + Q1047D (UniProt Q14671).
T3 sequence: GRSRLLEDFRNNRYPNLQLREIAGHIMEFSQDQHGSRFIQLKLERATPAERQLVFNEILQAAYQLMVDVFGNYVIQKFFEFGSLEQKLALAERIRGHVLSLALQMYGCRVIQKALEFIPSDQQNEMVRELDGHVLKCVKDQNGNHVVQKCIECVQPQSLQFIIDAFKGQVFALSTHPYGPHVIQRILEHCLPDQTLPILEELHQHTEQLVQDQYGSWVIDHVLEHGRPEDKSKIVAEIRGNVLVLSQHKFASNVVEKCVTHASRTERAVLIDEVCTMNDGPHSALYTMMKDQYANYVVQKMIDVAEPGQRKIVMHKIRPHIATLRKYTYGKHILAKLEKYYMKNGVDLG

Assay [4] deals with T4, PUM1 PUF domain R6-SWD R7-NPG N1043S + Y1044W + Q1047D + S1079N + N1080P + E1083G (Homo sapiens) (UniProt Q14671).
T4 sequence: T3 sequence with P180C, H181R, S252N, N253P, E256G

Where a chain is given by its changes, count along the chain named. This is one part of the list. For part of these data: At the low end of the ranking, values are background and their order means little. For part of these data: Construct or isoform of the protein are uncertain.

For “GGCUAGAACUAGUGGAUCCCCCGGCGCCCGGCGGCUCGAGCCCGGGUAAGUGUUACCAGUCUGCAUGCCGCCGGGCGCCAUGCCUGCAGGUCGACUCUAGAAAACAUG”, the values for the binding signal (log2 enrichment (interaction score)) in assay [1] and in assay [2] were -7.65 and -2.19, respectively.
On the same counts, the results for “GGCUAGAACUAGUGGAUCCCCCGGCGCCCGGCGGCUCGAGCCCGGGUAAGUCUGCGAUGUCUGCAUGCCGCCGGGCGCCAUGCCUGCAGGUCGACUCUAGAAAACAUG” are -7.67 and < -2.06.
“GGCUAGAACUAGUGGAUCCCCCGGCGCCCGGCGGCUCGAGCCCGGGUAAGUUUCAGGAGUCUGCAUGCCGCCGGGCGCCAUGCCUGCAGGUCGACUCUAGAAAACAUG”: the binding signal (log2 enrichment (interaction score)) in assay [1] was -8.11.
On to “GGCUAGAACUAGUGGAUCCCCCGGCGCCCGGCGGCUCGAGCCCGGGUAAGAUCACGUAGUCUGCAUGCCGCCGGGCGCCAUGCCUGCAGGUCGACUCUAGAAAACAUG”, for which the binding signal (log2 enrichment (interaction score)) is -7.29 in assay [1] and -3.11 in assay [2].
With “GGCUAGAACUAGUGGAUCCCCCGGCGCCCGGCGGCUCGAGCCCGGGUAAGCUUAAGAAGUCUGCAUGCCGCCGGGCGCCAUGCCUGCAGGUCGACUCUAGAAAACAUG”, in assay [1], the binding signal (log2 enrichment (interaction score)) was -7.08.
The same measure, in the same setting: next, “GGCUAGAACUAGUGGAUCCCCCGGCGCCCGGCGGCUCGAGCCCGGGUAAGGGGCAGUCGUCUGCAUGCCGCCGGGCGCCAUGCCUGCAGGUCGACUCUAGAAAACAUG”: -7.11.
Take “GGCUAGAACUAGUGGAUCCCCCGGCGCCCGGCGGCUCGAGCCCGGGUAAGUCGACGUAGUCUGCAUGCCGCCGGGCGCCAUGCCUGCAGGUCGACUCUAGAAAACAUG”: the binding signal (log2 enrichment (interaction score)) in assay [1] was < -7.17; in assay [2], -2.94; in assay [3], < -7.
As to “GGCUAGAACUAGUGGAUCCCCCGGCGCCCGGCGGCUCGAGCCCGGGUAAGAUAACGUAGUCUGCAUGCCGCCGGGCGCCAUGCCUGCAGGUCGACUCUAGAAAACAUG”, the results for the binding signal (log2 enrichment (interaction score)) in assay [1] and in assay [3] were < -6.53 and < -7.24, respectively.
On the same counts, the results for “GGCUAGAACUAGUGGAUCCCCCGGCGCCCGGCGGCUCGAGCCCGGGUAAGCGUAAGUAGUCUGCAUGCCGCCGGGCGCCAUGCCUGCAGGUCGACUCUAGAAAACAUG” are -6.42 and < -7.38.
In the case of “GGCUAGAACUAGUGGAUCCCCCGGCGCCCGGCGGCUCGAGCCCGGGUAAGCGGAACAAGUCUGCAUGCCGCCGGGCGCCAUGCCUGCAGGUCGACUCUAGAAAACAUG”, the binding signal (log2 enrichment (interaction score)) was < -7.56 in assay [1] and -7.42 in assay [3].
For “GGCUAGAACUAGUGGAUCCCCCGGCGCCCGGCGGCUCGAGCCCGGGUAAGUGGGCGUAGUCUGCAUGCCGCCGGGCGCCAUGCCUGCAGGUCGACUCUAGAAAACAUG”, the binding signal (log2 enrichment (interaction score)) is < -8.25 in assay [1], -2.9 in assay [2], -7.08 in assay [3] and -0.08 in assay [4].
For the sequence “GGCUAGAACUAGUGGAUCCCCCGGCGCCCGGCGGCUCGAGCCCGGGUAAGCGUAAGUUGUCUGCAUGCCGCCGGGCGCCAUGCCUGCAGGUCGACUCUAGAAAACAUG”, the binding signal (log2 enrichment (interaction score)) is -7.29 in assay [1] and < -9.04 in assay [3].
On the same counts, the results for “GGCUAGAACUAGUGGAUCCCCCGGCGCCCGGCGGCUCGAGCCCGGGUAAGUGAAUACUGUCUGCAUGCCGCCGGGCGCCAUGCCUGCAGGUCGACUCUAGAAAACAUG” are < -6.97 and -8.47.
On the same counts, the results for “GGCUAGAACUAGUGGAUCCCCCGGCGCCCGGCGGCUCGAGCCCGGGUAAGUGGCGGAAGUCUGCAUGCCGCCGGGCGCCAUGCCUGCAGGUCGACUCUAGAAAACAUG” are < -7.84 and < -6.95.
On the same counts, the results for “GGCUAGAACUAGUGGAUCCCCCGGCGCCCGGCGGCUCGAGCCCGGGUAAGUGUACGCAGUCUGCAUGCCGCCGGGCGCCAUGCCUGCAGGUCGACUCUAGAAAACAUG” are -2.5 and -7.77.
Regarding “GGCUAGAACUAGUGGAUCCCCCGGCGCCCGGCGGCUCGAGCCCGGGUAAGUCGAACUAGUCUGCAUGCCGCCGGGCGCCAUGCCUGCAGGUCGACUCUAGAAAACAUG”, the results for the binding signal (log2 enrichment (interaction score)) in assay [1] and in assay [3] were -6.14 and < -8.28, respectively.
As to “GGCUAGAACUAGUGGAUCCCCCGGCGCCCGGCGGCUCGAGCCCGGGUAAGGGGCUGUAGUCUGCAUGCCGCCGGGCGCCAUGCCUGCAGGUCGACUCUAGAAAACAUG”, the binding signal (log2 enrichment (interaction score)) was -8.65 in assay [1] and < -7.72 in assay [3].
Regarding “GGCUAGAACUAGUGGAUCCCCCGGCGCCCGGCGGCUCGAGCCCGGGUAAGUGAAUACAGUCUGCAUGCCGCCGGGCGCCAUGCCUGCAGGUCGACUCUAGAAAACAUG”, the figures for the binding signal (log2 enrichment (interaction score)) in assay [1], in assay [2] and in assay [3] were -7.03, < -2.25 and -7.61, respectively.
Take “GGCUAGAACUAGUGGAUCCCCCGGCGCCCGGCGGCUCGAGCCCGGGUAAGAUGAACUAGUCUGCAUGCCGCCGGGCGCCAUGCCUGCAGGUCGACUCUAGAAAACAUG”: the binding signal (log2 enrichment (interaction score)) in assay [1] was -6.22; in assay [3], < -7.33.
“GGCUAGAACUAGUGGAUCCCCCGGCGCCCGGCGGCUCGAGCCCGGGUAAGUGAAUGAAGUCUGCAUGCCGCCGGGCGCCAUGCCUGCAGGUCGACUCUAGAAAACAUG”: the binding signal (log2 enrichment (interaction score)) in assay [1] is -6.19; in assay [2], < -2.06; in assay [3], < -6.56; in assay [4] it was -1.89.
“GGCUAGAACUAGUGGAUCCCCCGGCGCCCGGCGGCUCGAGCCCGGGUAAGUGGGCUUUGUCUGCAUGCCGCCGGGCGCCAUGCCUGCAGGUCGACUCUAGAAAACAUG”: the binding signal (log2 enrichment (interaction score)) in assay [1] is -7.67; in assay [3], < -7.87.
As for “GGCUAGAACUAGUGGAUCCCCCGGCGCCCGGCGGCUCGAGCCCGGGUAAGUGUUCACAGUCUGCAUGCCGCCGGGCGCCAUGCCUGCAGGUCGACUCUAGAAAACAUG”, the binding signal (log2 enrichment (interaction score)) is -6.6 in assay [1], -2.81 in assay [2] and -7.09 in assay [3].
